Measured values: PubChem BioAssay AID2417 (National Center for Advancing Translational Sciences (NCATS), 2010)
Out of some 140,000 compounds screened, about 4,300 (3.1%) were called active. This list was built around the results that the source calls inconclusive (neither active nor inactive); the mix of calls is not that of the screen.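 How the source made its calls: active means readout at or below -70, meaning at least 70% loss of cells showing the perinucleolar compartment, a nuclear body marking cancer cells; inconclusive means readout between -30 and a set limit; inactive means the rest.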

Experiment: High Content Assay for Compounds that inhibit the Assembly of the Perinucleolar Compartment;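 further: plate controls were DMSO wells for no effect and camptothecin positive control wells for full effect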
Conditions: PC3M PTB-GFP, PNC prevalence imaging, 16 h; at 10 µM; active compounds read low
Outline: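 Read-out is percentage of cells bearing a perinucleolar compartment, from automated 20x imaging of fixed, Hoechst-stained PC3M PTB-GFP cells. Cells were seeded 4 h, then exposed 16 h to compound (23 nl of library stock) in duplicate plates.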

Row | Compound | activity change (PNC), negative = inhibition
1 | O=C(c1ccco1)N1CCN(C(=O)C2CCN(S(=O)(=O)c3cccs3)CC2)CC1 | inactive: -19.3%
2 | CCOC(=O)Cc1nnc(NC(=O)C(CC)Sc2nncn2C)s1 (stereo unspecified) | active: -85.3%
3 | COC(=O)c1[nH]c(C)c(/C(O)=C2\C(=O)C(=O)N(CCN3CCOCC3)C2c2cccs2)c1C (stereo unspecified) | inconclusive: -38.3%
4 | Cc1cc(-c2csc(N)n2)c(C)n1C | inconclusive: -33.5%
5 | CCOc1ccc(NS(=O)(=O)c2cnc(Cl)c(Cl)c2)cc1 | inconclusive: -44.2%
6 | Cc1cccc(N2CCN(CC(O)COCc3cccs3)CC2)c1C (stereo unspecified) | active: -115%
7 | COc1ccc(-c2nnc(Nc3ccc(OC)c(C(=O)N4CCCCC4)c3)c3ccccc23)cc1 | inactive: -22.8%
8 | Cc1ccc(C(=O)C2CCN(CC(=O)Nc3ccc(N(C)C)cc3)CC2)cc1 | inconclusive: -34%
9 | COc1ccc(N2CCN(c3ccc(N4C(=O)COCC4=O)cc3[N+](=O)[O-])CC2)cc1 | inconclusive: -47.1%
10 | COc1ccc(/C=N/NC(=O)CCSc2nc3ccccc3s2)cc1OC | inconclusive: -42.5%
11 | Cc1cccc(CN2C(=O)CCSc3ccc(Cl)cc32)c1 | inactive: 30.6%
12 | CN1CCN(S(=O)(=O)c2ccc(NC(=O)C(C)(C)C)cc2)CC1 | inconclusive: -59.8%
13 | CCN1C(=O)/C(=C2/C=Cc3cc(C)ccc3N2CC)N(C)C1=S | inconclusive: -57.1%
14 | Cn1c(N2CCOCC2)nc2c1c(=O)n(Cc1ccc(Cl)c(Cl)c1)c(=O)n2C | inconclusive: -44.6%
15 | c1csc(C2=Nn3c(nnc3-c3ccncc3)SC2)c1 | inconclusive: -38%
16 | CC1CCCC(NC(=O)COC(=O)c2ccc3ccccc3n2)C1C (stereo unspecified) | inconclusive: -48.6%
17 | CC(=O)c1c(N2CCCCC2)nc(=S)n(Cc2ccccc2)c1C | inconclusive: -78.8%
18 | COc1ccc(NCc2ccc3c(c2)OCO3)cc1Cl | inconclusive: -39.4%
19 | NNC(=O)CN1C(=O)Nc2ccc(Br)cc2C1c1ccccc1 (stereo unspecified) | inconclusive: -32.4%
20 | Cc1oc(/N=C/c2ccccc2O)c(C#N)c1C | inactive: -24.8%
21 | CC(C(=O)Nc1sc2c(c1C(=O)NCc1ccco1)CCCC2)N1C(=O)c2ccccc2C1=O (stereo unspecified) | inactive: 20.3%
22 | N#Cc1cc2ccccc2nc1SCC(=O)Nc1ccc(S(=O)(=O)N2CCCC2)cc1 | inactive: 11.6%
23 | Cc1cc(C)cc(N(CC(=O)N2CCn3c2nc2ccccc23)S(=O)(=O)c2c(C)noc2C)c1 | inactive: -19.8%

Row | Compound | activity change (PNC), negative = inhibition
24 | CC1(C)Oc2ccc3ccc(=O)oc3c2/C(=C/NCCO)C1=O | inconclusive: -66.2%
25 | COC(=O)CN1C(=O)C(O)(CC(=O)c2ccc(Cl)cc2)c2ccccc21 (stereo unspecified) | inconclusive: -34.5%
26 | COC(=O)c1ccc(C(=O)Nc2ccc3nc(-c4cccnc4)[nH]c3c2)cc1 | active: -83.1%
27 | N#CC1=C(N)NC(SCC(=O)Nc2ccc(Br)cc2)=C(C#N)C12CCCCC2 | inactive: 27.5%
28 | Cc1ccc(-c2cc(C(=O)Nc3ccc(S(=O)(=O)Nc4nc(C)cc(C)n4)cc3)c3ccccc3n2)cc1 | inconclusive: -42.2%
29 | Clc1ccc(-c2nn3c(-c4ccccn4)nnc3s2)c(Cl)c1 | inconclusive: -42.1%
30 | CC(C)(C)c1nnc(N/N=C/c2ccccc2O)n(N)c1=O | inconclusive: -43.8%
31 | O=C(NCCCN1CCCC1=O)c1cc(NS(=O)(=O)c2ccc(F)cc2)cc(NS(=O)(=O)c2ccc(F)cc2)c1 | inconclusive: -37.4%
32 | CC(=O)OCCCNc1cc(Sc2nc3ccccc3s2)c2nonc2c1[N+](=O)[O-] | inactive: 16%
33 | Nc1nc(NC(=O)c2cccc(S(=O)(=O)N3CCCCCC3)c2)nc(-c2ccccc2)n1 | inactive: -29.3%
34 | CC(C)C(NS(=O)(=O)c1cccs1)C(=O)N(C)Cc1ccccc1 (stereo unspecified) | inconclusive: -47.1%
35 | CCc1nnc(NC(=O)CSc2nnc(CCc3nc4ccccc4[nH]3)n2C)s1 | inconclusive: -31.2%
36 | O=c1cc(CN2CCC3(CC2)OCCO3)c2c(ccc3ccccc32)o1 | inconclusive: -39.9%
37 | O=C(NC(=S)Nc1ccc(N2CCCCC2)cc1)c1cccs1 | inconclusive: -32.5%
38 | CCOc1ccccc1N1CCN(C(=O)CC(C)C)CC1 | inconclusive: -51%
39 | CC(=O)N1N=C(c2cccc(Cl)c2)OC1c1ccc(C(C)C)cc1 (stereo unspecified) | inconclusive: -50.1%
40 | CC1(C)C2CC=C(/C=N/NC(=O)c3ccc(Cl)cc3)C1C2 (stereo unspecified) | inactive: 14.2%
41 | CCCCCC(=O)N/N=C/c1ccc(N(C)C)cc1 | inactive: 8.67%
42 | Cc1ccc2[nH]c(C)c(CC(=O)O)c2c1 | inactive: 2.21%
43 | COc1cc(/C=C(\C#N)C(=O)NC2CCCCC2C)ccc1OS(=O)(=O)c1ccc(C)cc1 (stereo unspecified) | inconclusive: -78.6%
44 | Cc1cc(N(C)C)c(C#N)c(N2CCCCC2)n1 | inactive: 61.1%
45 | COc1ccc(OC)c(/C=C2\S/C(=N/NC(=O)c3ccc4ccccc4c3)NC2=O)c1 | inactive: 23%
46 | [S-]C(=Nc1ccc(Cl)cc1)N[n+]1ccccc1 | inactive: -22.6%

An excerpt from above in order of heavy-atom count, ascending.
Row | Compound | activity change (PNC), negative = inhibition
44 | Cc1cc(N(C)C)c(C#N)c(N2CCCCC2)n1 | inactive: 61.1%
41 | CCCCCC(=O)N/N=C/c1ccc(N(C)C)cc1 | inactive: 8.67%
38 | CCOc1ccccc1N1CCN(C(=O)CC(C)C)CC1 | inconclusive: -51%
